PubChem BioAssay AID686938 | Drosophila RNAi Screening Center, 2013
Purpose: 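Fly genes required for calcium entry once internal stores are emptied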 (primary screen). System: Drosophila S2R+ cells. Reagent: long dsRNA against Drosophila genes, about 0.25 µg dsRNA per well, roughly 10,000 cells. Time to read-out: 5 days of knock-down before the calcium assay. Conditions: thapsigargin (SERCA pump blocker) to empty calcium stores; entry signal taken 4 min after adding it. Read-out: 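Per-well fluo-4 fluorescence in two replicates, unnormalised, measured in resting cells and 4 min after store depletion by the SERCA blocker thapsigargin; ratio of the two present in few wells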. Reading the numbers: calcium entry signal: higher = stronger calcium signal after store depletion; resting calcium signal: higher = higher resting calcium signal. Rule for the call: 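Called when the plate z-score of the entry-to-rest ratio, mean of duplicates, falls below −3; wells with low overall dye signal (Fmax z below −2) or more than five off-targets excluded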. Calls: active = strongly reduced calcium entry; inactive = no strong reduction.
The deposit covers about 23,000 reagents; shown is an unselected part of those that have a named target and a result. In the full data, 75 (0.33%) got an active call. 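Raw plate signals without normalisation; calls rest on plate z-scores that were not deposited; ratio present for only 364 wells.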 Entries without a mark were called inactive. Not given: the dose of the treatment.

| target gene | amplicon | calcium entry signal, replicate 1 (fluorescence units) | calcium entry signal, replicate 2 (fluorescence units) | resting calcium signal, replicate 1 (fluorescence units) | resting calcium signal, replicate 2 (fluorescence units) |
| --- | --- | --- | --- | --- | --- |
| CG10467 (GeneID 38697) | DRSC09728 | 2.66e7 | 4.61e7 | 1.30e7 | 1.91e7 |
| Saysd1 (GeneID 43029) | DRSC14664 | 4.51e7 | 6.39e7 | 2.16e7 | 2.77e7 |
| CkIIalpha-i3 (GeneID 38088) | DRSC08651 | 4.10e7 | 3.74e7 | 1.99e7 | 1.75e7 |
| CG1703 (GeneID 32112) | DRSC19764 | 2.24e7 | 2.68e7 | 1.15e7 | 1.40e7 |
| CG12716 (GeneID 32248) | DRSC19493 | 4.71e7 | 3.67e7 | 1.93e7 | 1.47e7 |
| timeout (GeneID 41615) | DRSC12950 | 2.54e7 | 2.59e7 | 1.21e7 | 1.22e7 |
| timeout (GeneID 41615) | DRSC17078 | 2.54e7 | 3.08e7 | 1.28e7 | 4.51e7 |
| timeout (GeneID 41615) | DRSC17079 | 2.19e7 | 2.66e7 | 1.15e7 | 4.91e7 |
| timeout (GeneID 41615) | DRSC17080 | 2.17e7 | 2.74e7 | 1.16e7 | 4.19e7 |
| timeout (GeneID 41615) | DRSC17081 | 2.83e7 | 6.58e7 | 1.33e7 | 9.22e7 |
| timeout (GeneID 41615) | DRSC21535 | 3.78e7 | 3.83e7 | 2.12e7 | 1.79e7 |
| CG11123 (GeneID 35664) | DRSC06040 | 5.02e7 | 4.62e7 | 2.35e7 | 1.93e7 |
| D12 (GeneID 34172) | DRSC03311 | 3.91e7 | – | 2.41e7 | – |
| lama (GeneID 38610) | DRSC11361 | 4.62e7 | 4.74e7 | 2.87e7 | 1.88e7 |
| Fkbp12 (GeneID 37214) | DRSC07425 | 4.93e7 | 4.56e7 | 2.05e7 | 2.11e7 |
| Acsx1R (GeneID 42352) | DRSC14339 | 4.59e7 | 5.34e7 | 5.71e7 | 2.38e7 |
| Caper (GeneID 33989) | DRSC02137 | 3.61e7 | – | 1.80e7 | – |
| CG13068 (GeneID 39784) | DRSC09951 | 4.70e7 | 6.02e7 | 2.25e7 | 2.32e7 |
| Non2 (GeneID 38341) | DRSC08272 | 4.42e7 | 3.61e7 | 2.22e7 | 1.82e7 |
| CNBP (GeneID 37646) | DRSC04116 | 3.97e7 | 3.67e7 | 2.19e7 | 1.93e7 |
| CNBP (GeneID 37646) | DRSC04419 | 4.27e7 | 2.43e7 | 2.16e7 | 1.26e7 |
| CNBP (GeneID 37646) | DRSC21317 | 2.39e7 | 2.79e7 | 1.43e7 | 1.41e7 |
| CG8838 (GeneID 33551) | DRSC00712 | 4.71e7 | – | 2.27e7 | – |
| ddbt (GeneID 5740226) | DRSC07869 | 2.68e7 | 3.79e7 | 1.50e7 | 1.81e7 |

Copied from above for reference:
| target gene | amplicon | calcium entry signal, replicate 1 (fluorescence units) | calcium entry signal, replicate 2 (fluorescence units) | resting calcium signal, replicate 1 (fluorescence units) | resting calcium signal, replicate 2 (fluorescence units) |
| --- | --- | --- | --- | --- | --- |
| CG10467 (GeneID 38697) | DRSC09728 | 2.66e7 | 4.61e7 | 1.30e7 | 1.91e7 |
| Saysd1 (GeneID 43029) | DRSC14664 | 4.51e7 | 6.39e7 | 2.16e7 | 2.77e7 |
| CkIIalpha-i3 (GeneID 38088) | DRSC08651 | 4.10e7 | 3.74e7 | 1.99e7 | 1.75e7 |
